Biological target: RecA (UniProt P0A7G6)
Experiment: activity assay
Conditions: deproteinization-stable double D-loop on lambda DraI target; too much RecA decreases product; purified recombinant protein; label: 32P 5'-end; single-stranded DNA

The chains behind the UniProt entries cited, without tags or fusion partners. Residues count along the entry.
UniProt P0A7G6, 2-353: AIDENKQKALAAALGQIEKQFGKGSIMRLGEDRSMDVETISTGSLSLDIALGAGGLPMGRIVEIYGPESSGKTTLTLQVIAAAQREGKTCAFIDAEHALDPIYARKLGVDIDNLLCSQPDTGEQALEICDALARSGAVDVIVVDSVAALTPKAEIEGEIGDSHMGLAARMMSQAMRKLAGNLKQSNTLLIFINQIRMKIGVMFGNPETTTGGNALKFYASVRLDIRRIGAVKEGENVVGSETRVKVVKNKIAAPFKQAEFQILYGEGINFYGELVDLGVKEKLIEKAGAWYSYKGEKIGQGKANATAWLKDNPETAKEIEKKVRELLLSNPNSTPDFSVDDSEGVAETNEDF

## CGGTGTGGCAGCCGAAATGACAGAGCGCGGCCTGGCCAGAATGCAATAACGGGAGGCGCTGTGGCTGATTTCGATAACC [lambda 79-mer probe (7552-7630), heat denatured]
  activity on this sequence: active
